Results as given in US20050025768A1.
Results are given in words; binding and its absence hold for the method and conditions named. Some results given as binding are weak or reduced against the parent protein; the word gives no strength.

Chains of the proteins cited; added tags and fusions are not shown. Residues count along the entry.
UniProt P10148, residues 24-148: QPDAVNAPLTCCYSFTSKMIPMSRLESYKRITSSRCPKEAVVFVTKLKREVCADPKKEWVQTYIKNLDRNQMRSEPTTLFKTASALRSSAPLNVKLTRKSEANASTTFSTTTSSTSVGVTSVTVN
UniProt P13500, residues 24-99: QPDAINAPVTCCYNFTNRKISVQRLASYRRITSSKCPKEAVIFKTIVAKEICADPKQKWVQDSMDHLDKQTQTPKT
UniProt Q62401, residues 23-104: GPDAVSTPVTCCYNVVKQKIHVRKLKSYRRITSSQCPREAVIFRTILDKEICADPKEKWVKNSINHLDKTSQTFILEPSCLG

B1: 4N4 (antibody, IgG1, V domains shown)
VH: EVQLQQSGAELVKAGASVKLSCPASGLNIKDTYMHWVKQRPEQGLEWIGRIDPANGNTKFDPKFQGKATITADTSSNTAYLQLSSLTSEDTAVYYCARGVFGFFDYWGQGTTLTVSS
VL: DIQMTQSSSSFSVSLGDRVTITCKATEDIYNRLAWYQQKPGSAPRLLISGATSLETGVPSRFSGSGSGKDYTLSITSLQTEDVATYYCQQFWSAPYTFGGGTKLEIK
B2: 7H1 (antibody, IgG1, V domains shown)
VH: B1 VH
VL: B1 VL
B3: 6I5 (antibody, IgG1, V domains shown)
VH: B1 VH
VL: B1 VL
B4: 6D21 (antibody, IgG1, V domains shown)
VH: B1 VH
VL: B1 VL
B5: 5A13 (antibody, IgG1, V domains shown)
VH: B1 VH
VL: B1 VL

The binders below were run against murine MCP-1 (JE) (mouse) (UniProt P10148) (assay: ELISA, purified mAb 10 ug/ml).

binding, binds:
B1
B2
B3
B4
B5

What follows are binders tested against human MCP-1 (human) (UniProt P13500) (assay: ELISA, purified mAb 10 ug/ml).

binding, binds:
B1
B2
B3
B4
B5

These binders were tested against murine MCP-5 (mouse) (UniProt Q62401) (assay: ELISA, purified mAb 10 ug/ml).

binding, binds:
B1
B2
B3
B4
B5

The binders below were run against murine MCP-3 (mouse) (UniProt Q03366) (assay: ELISA, purified mAb 10 ug/ml).

binding, binds:
B1
B2
B3
B4
B5

What follows are binders tested against human MCP-1 (human) (UniProt P13500) (assay: summary of Tables 1 and 3 (ELISA)).

binding, binds:
B1
B2
B3
B4
B5

Each binder was assayed against human MCP-1 (human) (UniProt P13500) (assay: ELISA, hybridoma supernatant).

binding, binds:
B1
B2
B3
B4
B5
